# Some of the results follow. Single values are uncertain here, since repeats match poorly.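 The cells were human embryonic kidney cells carrying a Renilla luciferase gene, driven by the HSV-TK promoter, on a plasmid put in briefly by transfection. This is the first-round screen of about ten thousand compounds, looking for ones that raise reporter output.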
# Test system: HEK 293FT
# Experiment: log relative Renilla luciferase luminescence (reporter expression vs reference, reference not stated) (log (base not stated)); higher = higher recombinant reporter expression
# Settings: 10 µM; time after transfection 48 h
# Experimental: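 HEK 293FT cells transiently transfected with pRL-TK (Renilla luciferase) were treated with compounds at 10 uM and luminescence was read about 42 h later. Values are log relative Renilla luminescence (log base and reference not stated). Single-pass screen; 2080 natural products library.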
row,SMILES,log
1,"COc1cc(-c2oc3cc(OC)c(OC)c(OC)c3c(=O)c2OC)cc(OC)c1OC [3',4',5',3,5,6,7-Heptamethoxyflavone]",0.0076
2,COc1cc(C[C@H]2COC(=O)[C@@H]2Cc2ccc(O)c(OC)c2)ccc1O [Matairesinol],-0.142
3,C=C1CCC(C(C)C)=C[C@H]2[C@@H]1CC[C@@]2(C)O [Alismol],-0.89
4,C[C@@H]1CC[C@]2(C(=O)O)CC[C@]3(C)C(=CC[C@@H]4[C@@]5(C)CC[C@H](O)C(C)(C)[C@@H]5CC[C@]43C)[C@@H]2[C@]1(C)O [Pomolic acid],-0.264
5,COc1cc([C@@H]2Oc3c(OC)cc(/C=C/C=O)cc3[C@H]2CO)ccc1O [Balanophonin],-0.0669
6,C[C@@H]([C@H]1CC[C@H]2[C@@H]3CC[C@H]4C(=O)C(NC(=O)c5ccccc5)=CC[C@]4(C)[C@H]3CC[C@]12C)N(C)C [Axillaridine A],-0.0883
7,COc1cc2oc(=O)ccc2cc1[C@H]1O[C@H](OC(C)=O)[C@]2(C)O[C@H]12 [Acetyldihydromicromelin A],-0.0767
8,COc1ccc(C[C@H]2C(=O)OC[C@@H]2[C@@H](OC(C)=O)c2ccc(OC)c(OC)c2)cc1OC [5-Acetoxymatairesinol dimethyl ether],0.74
9,"O=Cc1ccc(O)c(O)c1 [3,4-Dihydroxybenzaldehyde]",-0.619
10,O=C1c2c(O)cc(O)cc2O[C@H](c2cc(O)c(O)c(O)c2)[C@H]1O [Ampelopsin],-0.0332
11,Cc1coc2c1C(=O)C(=O)c1c-2ccc2c1CCCC2(C)CO (stereo unspecified) [Tanshinone IIB],-0.285

# Single values from above:
# log with COc1cc(C[C@H]2COC(=O)[C@@H]2Cc2ccc(O)c(OC)c2)ccc1O [Matairesinol] is entered as -0.142
# log with C[C@@H]([C@H]1CC[C@H]2[C@@H]3CC[C@H]4C(=O)C(NC(=O)c5ccccc5)=CC[C@]4(C)[C@H]3CC[C@]12C)N(C)C [Axillaridine A] is entered as -0.0883

# From the supplement of paper PMC7024190
